{
  "source": "PubChem BioAssay AID2417",
  "about": "(National Center for Advancing Translational Sciences (NCATS), 2010)",
  "note": "About 4,300 (3.1%) of roughly 140,000 compounds were called active. The shares of active, inactive and inconclusive entries below differ from those in the screen.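 Rule for the calls: active = readout at or below -70, meaning at least 70% loss of cells showing the perinucleolar compartment, a nuclear body marking cancer cells; inconclusive = readout between -30 and a set limit; inactive = the rest.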",
  "data": [
    {"assay": "High Content Assay for Compounds that inhibit the Assembly of the Perinucleolar Compartment;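 note: plate controls were DMSO wells for no effect and camptothecin positive control wells for full effect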", "details": "PC3M PTB-GFP, PNC prevalence imaging, 16 h; at 10 µM; stronger effect = lower value", "in_short": "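Compounds are pinned in duplicate onto adhered PC3M cells stably expressing GFP-tagged PTB and incubated 16 h at 37 C. Cells are then fixed, nuclei stained with Hoechst, and PNC-positive cells counted.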", "values": [
      {"smiles": "O=[N+]([O-])c1ccc2nc(/C=C/c3ccc(Cl)cc3)[nH]c2c1", "activity change (PNC), negative = inhibition": "inconclusive: -46.9%"},
      {"smiles": "COc1ccccc1-c1nnc2sc(-c3cnccn3)nn12", "activity change (PNC), negative = inhibition": "inactive: -19.6%"},
      {"smiles": "CC(C)Nc1nc(N(c2ccccc2)c2ccccc2)nc(-n2ccnc2)n1", "activity change (PNC), negative = inhibition": "inactive: -4.69%"},
      {"smiles": "COc1ccc(OCC(=O)Nc2cccc3cccnc23)cc1", "activity change (PNC), negative = inhibition": "inconclusive: -43.5%"},
      {"smiles": "Cc1ccc(S(=O)(=O)N2CCN(CC(=O)N/N=C/C=C/c3ccccc3)CC2)cc1", "activity change (PNC), negative = inhibition": "inconclusive: -38.5%"},
      {"smiles": "O=C(CN1CCN(Cc2ccccc2)C1=O)NCc1ccc(Cl)cc1", "activity change (PNC), negative = inhibition": "inactive: 34.8%"},
      {"smiles": "CC(=O)C1=C(C)NC(SCC(=O)c2ccc(C)cc2)=C(C#N)C1c1ccco1", "note": "(stereo unspecified)", "activity change (PNC), negative = inhibition": "inactive: 4.51%"},
      {"smiles": "C=CCON1C(=O)c2ccccc2C1=O", "activity change (PNC), negative = inhibition": "active: -111%"},
      {"smiles": "Cc1c(C(=O)Nc2ccc(-c3nnc4n3CCCCC4)cc2)oc2c1ccc1ccccc12", "activity change (PNC), negative = inhibition": "inconclusive: -34.4%"},
      {"smiles": "O=C1CC(c2ccc(S(=O)(=O)NCc3ccccc3)cc2)CN1", "note": "(stereo unspecified)", "activity change (PNC), negative = inhibition": "inconclusive: -54.6%"},
      {"smiles": "Brc1ccc2c(c1)CNc1c(ncnc1N1CCOCC1)O2", "activity change (PNC), negative = inhibition": "inconclusive: -33.4%"},
      {"smiles": "Cc1nc(SCC(=O)c2ccc(Cl)cc2)c([N+](=O)[O-])[nH]1", "activity change (PNC), negative = inhibition": "inconclusive: -37.2%"},
      {"smiles": "CC12CN(S(=O)(=O)c3ccccc3)CC(C)(CN(S(=O)(=O)c3ccccc3)C1)C2", "activity change (PNC), negative = inhibition": "active: -113%"},
      {"smiles": "CC(=O)Oc1ccc(CCC(C)OC(C)=O)cc1", "note": "(stereo unspecified)", "activity change (PNC), negative = inhibition": "inconclusive: -41.6%"},
      {"smiles": "COc1ccc(NC(=O)CSc2nnc(Cc3cccs3)n2-c2ccc(C)cc2)cc1", "activity change (PNC), negative = inhibition": "inactive: 33.7%"},
      {"smiles": "CCOC(=O)c1[nH]c2ccc(OC)cc2c1NC(=S)N1CCN(c2cccc(C)c2C)CC1", "activity change (PNC), negative = inhibition": "inconclusive: -54.5%"},
      {"smiles": "CCN(CC)S(=O)(=O)c1cc(C(=O)OCC(=O)NC(=O)c2cccn2C)ccc1C", "activity change (PNC), negative = inhibition": "inconclusive: -50.1%"},
      {"smiles": "Cc1ccc(S(=O)(=O)NCC(=O)OCC(=O)c2ccc(Br)s2)cc1", "activity change (PNC), negative = inhibition": "inactive: 9.9%"},
      {"smiles": "Cc1cc(N/N=C(/CCC(=O)O)C(=O)O)nc2ccccc12", "activity change (PNC), negative = inhibition": "inactive: 24.2%"},
      {"smiles": "CCN1CCN(c2ncc(C(=O)N3CCCc4ccccc43)c3ccccc23)CC1", "activity change (PNC), negative = inhibition": "inconclusive: -66.5%"},
      {"smiles": "CCCC(=O)Nc1cc(OC)c(NC(=O)NC2CCCCC2)cc1OC", "activity change (PNC), negative = inhibition": "inconclusive: -70.5%"},
      {"smiles": "CN(C)S(=O)(=O)c1cc(NC(=O)[C@H](Cc2ccccc2)N2C(=O)c3ccccc3C2=O)ccc1Cl", "activity change (PNC), negative = inhibition": "inconclusive: -44.7%"},
      {"smiles": "COc1ccccc1-c1cc(C(=O)NCc2cccs2)no1", "activity change (PNC), negative = inhibition": "inconclusive: -35.6%"},
      {"smiles": "COc1ccc(C2(O)CCN(Cc3nnnn3Cc3ccc(C)cc3)CC2)cc1", "activity change (PNC), negative = inhibition": "inconclusive: -40%"},
      {"smiles": "Cc1c(Cl)cccc1NC(=S)NC(=O)CCN1C(=O)c2ccccc2C1=O", "activity change (PNC), negative = inhibition": "inactive: -24.5%"},
      {"smiles": "Cc1ccc(-n2c(C)nn(-c3ncc(C(F)(F)F)cc3Cl)c2=O)cc1", "activity change (PNC), negative = inhibition": "inconclusive: -31.4%"},
      {"smiles": "CCC(NC(=O)c1ccccc1NC(=O)c1ccccc1)C(=O)NNC(=O)CSc1nc2ccccc2o1", "note": "(stereo unspecified)", "activity change (PNC), negative = inhibition": "inactive: -4.05%"},
      {"smiles": "CCN(c1cccc(C)c1)S(=O)(=O)c1c(C)[nH]c(=O)[nH]c1=O", "activity change (PNC), negative = inhibition": "inactive: 18.8%"},
      {"smiles": "Cc1ccc(C)n1-c1ccc(C(=O)Nc2ccccc2)cc1", "activity change (PNC), negative = inhibition": "inactive: -14.4%"},
      {"smiles": "Cc1ccc(-c2nnc3ccc(SC(C)C(=O)O)nn23)cc1", "note": "(stereo unspecified)", "activity change (PNC), negative = inhibition": "inconclusive: -50.3%"},
      {"smiles": "Cc1ccc(C)c(NC(=O)c2cc(-c3ccccc3)nn2-c2ccccc2)c1", "activity change (PNC), negative = inhibition": "inconclusive: -34.7%"},
      {"smiles": "CCS(=O)(=O)N1CCCC(C(=O)NCc2cccc(OC)c2)C1", "note": "(stereo unspecified)", "activity change (PNC), negative = inhibition": "inconclusive: -36.3%"},
      {"smiles": "COc1ccc(NC(=O)CN(c2cccc(F)c2)S(C)(=O)=O)cc1OC", "activity change (PNC), negative = inhibition": "inconclusive: -56.6%"},
      {"smiles": "NC(=O)C1CCN(CC(=O)Nc2cccc(C(=O)Nc3cccc(C(F)(F)F)c3)c2)CC1", "activity change (PNC), negative = inhibition": "inactive: -23.8%"},
      {"smiles": "CN(Cc1nc(-c2ccncc2)no1)S(=O)(=O)c1ccccc1", "activity change (PNC), negative = inhibition": "inconclusive: -38.2%"},
      {"smiles": "N#Cc1ccc(NC(=O)N2CCC(c3nc4c(nnn4Cc4cccc(Cl)c4)c(=O)[nH]3)CC2)cc1", "activity change (PNC), negative = inhibition": "inactive: -23.8%"},
      {"smiles": "N=C1C(c2ccccc2)=C(O)C2CCc3ccccc3N12", "note": "(stereo unspecified)", "activity change (PNC), negative = inhibition": "inactive: -7.43%"},
      {"smiles": "O=C(NCc1n[nH]c(=S)n1-c1ccccc1)c1ccc(S(=O)(=O)N2CCOCC2)cc1", "activity change (PNC), negative = inhibition": "inconclusive: -38.6%"},
      {"smiles": "N#CCC1c2ccccc2CCN1C(=O)Nc1ccc(Cl)cc1", "note": "(stereo unspecified)", "activity change (PNC), negative = inhibition": "active: -80.9%"},
      {"smiles": "CCc1nc(SCC(=O)NCCc2ccc(OC)c(OC)c2)c2c(=O)n(C)c(=O)n(C)c2n1", "activity change (PNC), negative = inhibition": "inconclusive: -37.2%"},
      {"smiles": "Oc1ccc(-n2cnnn2)cc1", "activity change (PNC), negative = inhibition": "inconclusive: -31.2%"},
      {"smiles": "O=C(OCc1nc2ccccc2s1)c1cc2ccccc2oc1=O", "activity change (PNC), negative = inhibition": "inactive: 21.3%"},
      {"smiles": "Cc1ccccc1CSCC(=O)NC(=O)NCc1ccco1", "activity change (PNC), negative = inhibition": "active: -95%"},
      {"smiles": "COc1ccccc1CN(Cc1nc2ccccc2c(=O)[nH]1)C(=O)Nc1ccc(C)cc1", "activity change (PNC), negative = inhibition": "inactive: -15.2%"},
      {"smiles": "Cc1ccc(N2C(=O)CC(N(O)C3CC(=O)N(c4ccc(C)cc4)C3=O)C2=O)cc1", "note": "(stereo unspecified)", "activity change (PNC), negative = inhibition": "inactive: -0.465%"},
      {"smiles": "OCCN(CCO)CC(O)COCCC12CC3CC(CC(C3)C1)C2", "note": "(stereo unspecified)", "activity change (PNC), negative = inhibition": "inactive: 40.5%"},
      {"smiles": "CC1(N2CCOCC2)C(=O)c2ccccc2C1=O", "activity change (PNC), negative = inhibition": "inconclusive: -41.3%"},
      {"smiles": "CC(Sc1nc2ccccc2[nH]1)C(=O)O", "note": "(stereo unspecified)", "activity change (PNC), negative = inhibition": "inactive: 28.8%"},
      {"smiles": "Cc1cc(Nc2ccccc2N2CCOCC2)n2ncnc2n1", "activity change (PNC), negative = inhibition": "inactive: -11.7%"},
      {"smiles": "CC1=CC(C)(C)Nc2ccc(OC(=O)CN3C(=O)CCC3=O)cc21", "activity change (PNC), negative = inhibition": "inconclusive: -39.3%"},
      {"smiles": "O=C(Cn1cc2c(n1)CCCCC2)NC1CCN(Cc2ccccc2)CC1", "activity change (PNC), negative = inhibition": "inconclusive: -54%"},
      {"smiles": "COc1ccc(N(CC(=O)Nc2cc(OC)ccc2OC)S(=O)(=O)c2c(C)nn(C)c2C)cc1", "activity change (PNC), negative = inhibition": "inconclusive: -62.2%"},
      {"smiles": "CC1(C)CC(=O)C(C(c2ccco2)C2C(=O)CC(C)(C)CC2=O)C(=O)C1", "activity change (PNC), negative = inhibition": "inactive: -19.4%"},
      {"smiles": "CCCC(=O)N1CCN(C2=NS(=O)(=O)c3ccccc32)CC1", "activity change (PNC), negative = inhibition": "inconclusive: -59.3%"},
      {"smiles": "COc1ccc(CN2C(=O)CC(Cc3cc(C)cc(C)c3)C2=O)cc1OC", "note": "(stereo unspecified)", "activity change (PNC), negative = inhibition": "inconclusive: -37.4%"},
      {"smiles": "Cn1c(SCC(=O)Nc2ccc3c(c2)OCCO3)nnc1-c1ccco1", "activity change (PNC), negative = inhibition": "inconclusive: -57.9%"}
    ]}
  ]
}
